Measurements published in article PMC7862700.
The entries are a selection whose mix differs from that of the whole data set. At the low end of the ranking, values are background and their order means little.

Experiments:
Experiment in all cases: DAPPL (digital affinity profiling via proximity ligation, sequencing)
Details in all cases: 10 mM Tris-HCl pH 7.5, 50 mM NaCl, 1 mM DTT, 4% glycerol, room temperature, 30 min; GST-TFs on glutathione beads, 16-mer random dsDNA library, 0.1% …; high values mean tight binding; double strand, one strand shown; scale: fold enrichment (6-mer frequency, TF over GST control)
ELK1 = target: T1, ELK1 (UniProt P19419)
T1 sequence: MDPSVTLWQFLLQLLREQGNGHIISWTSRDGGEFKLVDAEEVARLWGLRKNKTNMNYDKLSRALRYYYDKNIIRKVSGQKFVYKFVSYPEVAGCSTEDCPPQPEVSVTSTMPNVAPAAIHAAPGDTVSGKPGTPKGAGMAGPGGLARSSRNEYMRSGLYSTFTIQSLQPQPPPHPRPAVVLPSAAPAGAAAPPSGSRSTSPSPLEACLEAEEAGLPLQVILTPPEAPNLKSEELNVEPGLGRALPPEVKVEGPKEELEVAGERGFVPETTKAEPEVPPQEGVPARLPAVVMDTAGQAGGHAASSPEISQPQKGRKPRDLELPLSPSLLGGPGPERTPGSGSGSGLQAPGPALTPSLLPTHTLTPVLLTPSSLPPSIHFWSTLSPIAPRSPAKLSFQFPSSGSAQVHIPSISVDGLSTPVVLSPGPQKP

ELK3 = target: T2, ELK3 (UniProt P41970)
T2 sequence: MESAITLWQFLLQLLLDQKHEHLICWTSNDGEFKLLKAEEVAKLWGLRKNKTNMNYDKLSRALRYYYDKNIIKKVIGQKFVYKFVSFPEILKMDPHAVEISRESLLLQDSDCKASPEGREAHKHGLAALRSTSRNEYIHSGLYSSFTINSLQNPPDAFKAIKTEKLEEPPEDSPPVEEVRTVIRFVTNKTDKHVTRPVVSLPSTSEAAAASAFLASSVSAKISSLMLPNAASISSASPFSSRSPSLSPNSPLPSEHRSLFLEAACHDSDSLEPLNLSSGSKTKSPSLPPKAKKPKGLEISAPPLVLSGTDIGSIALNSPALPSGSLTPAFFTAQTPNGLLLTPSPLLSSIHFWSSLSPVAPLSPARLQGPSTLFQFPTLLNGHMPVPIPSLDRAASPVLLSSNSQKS

SPIC = target: T3, SPIC (UniProt Q8N5J4)
T3 sequence: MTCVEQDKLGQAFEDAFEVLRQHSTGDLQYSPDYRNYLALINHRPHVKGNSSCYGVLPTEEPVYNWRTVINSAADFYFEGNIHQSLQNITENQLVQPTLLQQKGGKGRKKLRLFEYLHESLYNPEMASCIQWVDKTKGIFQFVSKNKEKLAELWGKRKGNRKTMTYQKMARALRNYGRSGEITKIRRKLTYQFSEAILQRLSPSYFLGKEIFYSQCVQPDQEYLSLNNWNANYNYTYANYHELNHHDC

ETS2 = target: T4, ETS2 (UniProt P15036)
T4 sequence: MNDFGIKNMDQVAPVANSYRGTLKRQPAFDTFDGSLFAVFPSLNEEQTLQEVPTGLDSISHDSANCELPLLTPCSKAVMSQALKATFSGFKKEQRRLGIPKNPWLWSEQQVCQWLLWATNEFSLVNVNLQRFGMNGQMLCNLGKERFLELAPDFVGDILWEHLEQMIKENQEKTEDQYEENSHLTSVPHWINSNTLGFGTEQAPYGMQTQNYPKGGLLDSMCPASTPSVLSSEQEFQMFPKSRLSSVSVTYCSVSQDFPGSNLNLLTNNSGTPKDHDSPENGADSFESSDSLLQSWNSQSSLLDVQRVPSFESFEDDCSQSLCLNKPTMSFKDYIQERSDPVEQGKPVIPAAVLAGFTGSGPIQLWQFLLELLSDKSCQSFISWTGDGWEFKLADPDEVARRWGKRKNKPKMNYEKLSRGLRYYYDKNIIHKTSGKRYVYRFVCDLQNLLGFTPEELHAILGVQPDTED

ETV3 = target: T5, ETV3 (UniProt P41162-2)
T5 sequence: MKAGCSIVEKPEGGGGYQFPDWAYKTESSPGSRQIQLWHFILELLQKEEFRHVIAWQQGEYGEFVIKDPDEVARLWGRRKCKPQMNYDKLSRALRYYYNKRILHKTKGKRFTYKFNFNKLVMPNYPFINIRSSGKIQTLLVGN

Sequence	binding signal (ELK1)	binding signal (ELK3)	binding signal (SPIC)	binding signal (ETS2)	binding signal (ETV3)
AGGTAC	0.891	0.869	0.844	0.878	0.93
GTGTGA	0.53	0.591	0.554	0.591	0.606
TGTAGG	0.776	0.756	0.871	0.779	0.811
GCAGGG	0.663	0.632	0.627	0.62	0.609
GTGTCA	0.803	0.798	0.844	0.824	0.822
CGTGAG	0.129	0.105	0.101	0.128	0.125
GTGAAT	0.803	0.766	0.794	0.8	0.847
CCCAGG	0.749	0.709	0.735	0.695	0.758
AGTTGG	0.467	0.538	0.5	0.406	0.495
CAGACG	0.451	0.513	0.511	0.501	0.471
GGCGGG	0.307	0.321	0.295	0.299	0.307
CAAGGC	0.923	0.93	0.878	0.829	0.971
AGAGGT	0.918	0.813	0.696	0.83	0.827
CAGGGG	0.596	0.545	0.469	0.586	0.528
GACTGT	0.42	0.431	0.361	0.438	0.389
GCAGCG	0.812	0.844	0.859	0.853	0.789
GGAGAT	0.295	0.28	0.357	0.303	0.307
GTCGTT	0.722	0.696	0.647	0.741	0.774
GAGGGA	0.513	0.438	0.543	0.491	0.485
AGCACC	0.924	0.984	0.922	0.872	0.908

A stretch of the results above, for reference:
Sequence	binding signal (ELK1)	binding signal (ELK3)	binding signal (SPIC)	binding signal (ETS2)	binding signal (ETV3)
GTGTCA	0.803	0.798	0.844	0.824	0.822
CGTGAG	0.129	0.105	0.101	0.128	0.125
GTGAAT	0.803	0.766	0.794	0.8	0.847
CCCAGG	0.749	0.709	0.735	0.695	0.758
